Reference: paper PMC11189301, “Structure of the human outer kinetochore KMN network complex” (Nature Structural & Molecular Biology, 2024)
No constants are given. Whether binding was seen depends on the method and setting.

Sequences of proteins named here, by UniProt entry; tags and fusion partners are left off. A change or cut given only in a name is not applied to a line headed by its entry.
UniProt O95229: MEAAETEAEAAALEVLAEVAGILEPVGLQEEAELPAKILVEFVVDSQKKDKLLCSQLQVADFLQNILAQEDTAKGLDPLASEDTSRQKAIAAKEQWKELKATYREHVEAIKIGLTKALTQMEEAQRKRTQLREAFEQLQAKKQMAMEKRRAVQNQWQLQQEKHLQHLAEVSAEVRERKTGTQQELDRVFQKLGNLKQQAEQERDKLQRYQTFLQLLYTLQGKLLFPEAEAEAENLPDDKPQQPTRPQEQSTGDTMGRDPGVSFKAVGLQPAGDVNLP
UniProt Q9H081: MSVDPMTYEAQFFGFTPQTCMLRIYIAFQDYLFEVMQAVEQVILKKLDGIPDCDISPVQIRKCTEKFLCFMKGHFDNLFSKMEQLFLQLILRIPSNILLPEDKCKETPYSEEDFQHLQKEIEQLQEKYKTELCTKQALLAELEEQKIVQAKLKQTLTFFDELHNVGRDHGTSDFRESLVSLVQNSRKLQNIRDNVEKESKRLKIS
UniProt Q6P1K2: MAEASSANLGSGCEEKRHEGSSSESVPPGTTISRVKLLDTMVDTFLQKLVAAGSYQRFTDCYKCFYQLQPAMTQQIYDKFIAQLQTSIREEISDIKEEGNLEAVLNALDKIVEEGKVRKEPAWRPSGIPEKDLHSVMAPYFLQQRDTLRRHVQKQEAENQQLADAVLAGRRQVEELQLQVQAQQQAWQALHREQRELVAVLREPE
UniProt Q9H410: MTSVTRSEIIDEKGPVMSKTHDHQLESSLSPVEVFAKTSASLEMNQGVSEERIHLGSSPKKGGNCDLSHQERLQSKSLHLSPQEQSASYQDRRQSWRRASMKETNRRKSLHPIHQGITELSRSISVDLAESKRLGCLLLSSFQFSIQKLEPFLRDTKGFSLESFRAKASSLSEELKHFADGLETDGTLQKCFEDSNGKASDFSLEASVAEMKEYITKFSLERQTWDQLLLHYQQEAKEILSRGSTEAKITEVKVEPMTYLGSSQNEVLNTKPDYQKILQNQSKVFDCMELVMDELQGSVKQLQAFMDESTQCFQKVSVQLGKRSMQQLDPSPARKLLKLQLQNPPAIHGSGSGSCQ
UniProt Q96IY1: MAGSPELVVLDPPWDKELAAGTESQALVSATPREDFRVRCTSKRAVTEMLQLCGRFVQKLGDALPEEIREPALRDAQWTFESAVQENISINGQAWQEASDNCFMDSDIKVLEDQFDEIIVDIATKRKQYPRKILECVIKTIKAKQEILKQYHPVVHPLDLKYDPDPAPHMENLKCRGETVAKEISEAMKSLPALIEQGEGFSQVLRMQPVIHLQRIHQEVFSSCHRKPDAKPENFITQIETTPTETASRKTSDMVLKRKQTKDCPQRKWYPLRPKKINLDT
UniProt O14777: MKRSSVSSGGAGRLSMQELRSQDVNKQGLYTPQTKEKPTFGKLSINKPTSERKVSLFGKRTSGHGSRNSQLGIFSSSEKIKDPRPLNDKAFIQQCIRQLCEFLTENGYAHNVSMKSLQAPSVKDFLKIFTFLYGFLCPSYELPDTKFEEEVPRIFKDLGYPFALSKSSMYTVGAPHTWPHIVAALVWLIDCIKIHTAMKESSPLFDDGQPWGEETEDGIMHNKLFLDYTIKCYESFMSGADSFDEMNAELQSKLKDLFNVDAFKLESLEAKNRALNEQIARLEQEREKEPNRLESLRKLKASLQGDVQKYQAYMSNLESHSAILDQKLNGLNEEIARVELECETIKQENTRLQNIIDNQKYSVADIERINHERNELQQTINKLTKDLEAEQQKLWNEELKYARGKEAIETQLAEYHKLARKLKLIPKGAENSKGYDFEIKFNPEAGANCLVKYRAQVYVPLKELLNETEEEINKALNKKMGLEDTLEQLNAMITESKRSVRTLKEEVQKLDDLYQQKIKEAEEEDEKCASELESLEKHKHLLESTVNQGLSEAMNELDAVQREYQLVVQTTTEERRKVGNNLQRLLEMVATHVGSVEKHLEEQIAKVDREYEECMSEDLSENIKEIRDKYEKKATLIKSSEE

Tests used:
[1] = biological target: KNL1 complex (Knl1 residues 1870–2342 with ZWINT) (human) (UniProt Q8NG31+O95229); experiment: cryo-EM structure; NDC80C, MIS12C and KNL1C mixed 1:1:1 and run on Superose 6 in 20 mM HEPES pH 8.0, 80 mM NaCl, 1 mM MgCl2, 1 mM TCEP; about 1 mg/ml on UltrAuFoil grids; 3.0 Å (MIS12C heads 3.8 Å); both purified
[2] = biological target: MIS12 complex with Nsl1 E219R V220R F221A and Dsn1 P332W R334A L336R combined (Homo sapiens) (UniProt Q9H081+Q6P1K2+Q9H410+Q96IY1); experiment: SEC; MIS12C variant mixed with NDC80C at 4 µM each; 20 mM HEPES pH 7.8, 150 mM NaCl, 0.5 mM TCEP; Superose 6; fractions on SDS-PAGE; both purified
[3] = biological target: MIS12 complex (Mis12, Pmf1, Dsn1, Nsl1), wild type, full length (Homo sapiens) (UniProt Q9H081+Q6P1K2+Q9H410+Q96IY1); experiment: ITC; peptide in the syringe titrated into the MIS12C variant in the cell; 20 °C; 20 mM HEPES pH 7.5, 100 mM NaCl, 1 mM TCEP; single-site binding model; duplicate or triplicate; both purified
[4] = biological target: MIS12 complex with Nsl1 truncated at the C terminus (Nsl1 1–264; residues 265–281 deleted) (Homo sapiens) (UniProt Q9H081+Q6P1K2+Q9H410+Q96IY1); experiment: SEC; MIS12C or MIS12C^Nsl1ΔC mixed with Knl1 2131–2337 or its mutants at 4 µM each; 20 mM HEPES pH 7.8, 150 mM NaCl, 0.5 mM TCEP; Superose 6; fractions on SDS-PAGE; both purified

Q: What does the source list for “NDC80 complex (Ndc80, Nuf2, Spc24, Spc25), full length, unmodified (from UniProt O14777 1-642; Q9BZD4 1-464; Q8NBT2 1-197; Q9HBM1 1-224)”?
A: binding [1]: no binding; binding [2]: no binding (tested: 4 µM each)

Q: For RRQSAAAASMKETNRRKSLHPIAW (N-terminal acetylation; C-terminal amidation) [Dsn1^92–113 peptide with W96A R97A R98A], which binding [3] is on record?
A: Its binding is “no binding”.

B1: Knl1 residues 2131–2337, mut2 (S2270R S2272W) (domain or fragment, H. sapiens, UniProt Q8NG31 2131-2337, looked up)
chain: SLSEWDVVEWSDDQAVFTFVYDTIQLTITFEESVVGFPFLDKRYRKIVDVNFQSLLDEDQAPPSSLLVHKLIFQYVEEKESWKKTCTTQHQLPKMLEEFSLVVHHCRLLGEEIEYLKRWGPNYNLMNIDINNNELRLLFRSWAAFAKFEITLFLSAYYPSVPLPSTIQNHVGNTSQDDIATILSKVPLENNYLKNVVKQIYQDLFQD
notes: Knl1, human, residues 2131-2337, RWD-C surface mutant 2; also called Knl1^mut2; KNL1^mut2; source: E. coli BL21 (DE3), purified (Ni-NTA, reverse IMAC, Superdex 75); not shown: His6, N-terminal, cleaved
Q: With B1 as the molecule, how does the binding [4] read?
A: Its binding is “no binding (tested: 4 µM each)”.
